Binding signal data for 42 sequences are collected here from publication PMC7819943, “Rice protein-binding microarrays: a tool to detect cis-acting elements near promoter regions in rice”.

This is one part of the list.

The target in this assay is T1, OsSMF1 (Oryza sativa, UniProt Q6ZLB0 1-436).
T1 sequence: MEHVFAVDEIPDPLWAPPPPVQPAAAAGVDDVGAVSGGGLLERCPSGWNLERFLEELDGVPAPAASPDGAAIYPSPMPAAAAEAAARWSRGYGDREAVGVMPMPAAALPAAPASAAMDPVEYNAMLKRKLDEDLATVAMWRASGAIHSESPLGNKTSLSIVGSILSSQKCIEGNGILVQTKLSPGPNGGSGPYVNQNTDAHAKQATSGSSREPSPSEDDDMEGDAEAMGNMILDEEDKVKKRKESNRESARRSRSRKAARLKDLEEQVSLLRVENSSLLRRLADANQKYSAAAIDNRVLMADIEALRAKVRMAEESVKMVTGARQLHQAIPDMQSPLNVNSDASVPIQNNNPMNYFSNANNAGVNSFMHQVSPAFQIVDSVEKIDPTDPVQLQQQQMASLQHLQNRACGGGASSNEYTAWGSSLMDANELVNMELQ
Description: protein-binding microarray (RPBM); PBS, 2% BSA, 51.3 ng/ul salmon testes DNA, 50 uM zinc acetate, 200 nM TF, 25 C, 1 h; high values mean tight binding. Particulars: protein: recombinant; tags: N-terminal polyhistidine and DsRed monomer fusion (pET32a); chain copies: 2; label: CyDye5-dUTP incorporated in the synthesized complementary strand; 3' TTTTT single-stranded linker to array surface; dsDNA, one strand shown. Summed up: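 A custom Agilent array was converted to double-stranded form by primer extension with Cy5-dUTP and blocked with 2% BSA. Protein at 200 nM in PBS with 2% BSA, salmon testes DNA and 50 µM zinc acetate was applied for 1 h at 25 °C, followed by washing. The proteins were polyhistidine–DsRed N-terminal fusions of transcription factors, expressed in E. coli BL21-CodonPlus and Ni–NTA-purified. The binding signal is per-feature fluorescence intensity (arbitrary units) from an Axon 4000B scanner.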
Consider “TTAGGTGTGGGAGGTTAGCTTATTAGATTACTTGCCGTGTCGGAGTCACCTAGTGCAG”, for which the binding signal is 3450 fluorescence intensity (a.u.).

“GTTCTCTAATGATACCCGTATGTCAGTTATCTCGTTGGAACGGAGTCACCTAGTGCAG”: the binding signal was 15100 fluorescence intensity (a.u.).

In the case of “GCTTCGACGTGTCCGTGCCACGTGCCGTCCCTCCATTCGCCGGAGTCACCTAGTGCAG”, the binding signal is 18000 fluorescence intensity (a.u.). Under “TGACGCTCCGGTGCAGCAGCAGCAGCAGCAGCGTGGCATTCGGAGTCACCTAGTGCAG” stands 4460 fluorescence intensity (a.u.); under “TTTGTTAGTTGCACAAAAGATTAGCACATGTTTTCTTTTACGGAGTCACCTAGTGCAG”, 3780 fluorescence intensity (a.u.). Under “GGGTCGGACGGTGGCGTACCTGGGTCTTGGCGCCACAGATCGGAGTCACCTAGTGCAG” stands 3500 fluorescence intensity (a.u.). Under “TTGATGCTATAAAAGGATTGTTGACAACGTGGTCACGCACCGGAGTCACCTAGTGCAG” stands 4310 fluorescence intensity (a.u.). “AGTGCCTGTGTGCCCACCACGTACTCTCCAACTATACATGCGGAGTCACCTAGTGCAG”: the binding signal was 3840 fluorescence intensity (a.u.). As for “CCGACGAGGACGAGGCGGCGTGGTCGAAGCCGGCGGTCGGCGGAGTCACCTAGTGCAG”, the binding signal was 42500 fluorescence intensity (a.u.). Turning to “GGCCGGCGGCGAGAGCAGCTCGATCGCAGTAGCGATGGATCGGAGTCACCTAGTGCAG”, the binding signal was 29200 fluorescence intensity (a.u.). Under “GTTGAGTGGAAATGTTTGTGCGCTTTCTGAAACCTATACTCGGAGTCACCTAGTGCAG” stands 15700 fluorescence intensity (a.u.). Under “ATATGTTACTCTCGCATCATATCCCCGGTTCTGTATGACACGGAGTCACCTAGTGCAG” stands 4200 fluorescence intensity (a.u.); under “CGGTGGATGCTGGAAAATCTTGTGCTTTATGCCGCGGTGACGGAGTCACCTAGTGCAG”, 3940 fluorescence intensity (a.u.); under “AGTGGCCTAATTGCCAACCTAGATGATGCGACATTCCAGCCGGAGTCACCTAGTGCAG”, 3640 fluorescence intensity (a.u.). Under “CTCGCAAAGCATCGACGTGCCACCTACCCCATCCGGAACACGGAGTCACCTAGTGCAG” stands 3330 fluorescence intensity (a.u.); under “TCGGAAATCGTTTCCGTGCTCACCACGTACTCACCAGCGCCGGAGTCACCTAGTGCAG”, 6000 fluorescence intensity (a.u.). On to “GCTAAACTAAACACAGCCTTCGTCAGGTCATCGCCGATCACGGAGTCACCTAGTGCAG”, for which the binding signal is 3280 fluorescence intensity (a.u.). To “TAGTTTTGTGACACTTCATTTTAAACGTGTAGTTTTGTGGCGGAGTCACCTAGTGCAG” belongs 4850 fluorescence intensity (a.u.). Under “TCAATTTCGATTCTCCCTCCGTCGTCGCGGCCCTATTCTACGGAGTCACCTAGTGCAG” stands 3360 fluorescence intensity (a.u.); under “GAGCTCCTTCCCCACACGTGGTTTCCCGCGCGAGATCCTCCGGAGTCACCTAGTGCAG”, 4430 fluorescence intensity (a.u.); under “AATATAGGGATACTGTGTTGGTGATGCTCTTAATCCTAGGCGGAGTCACCTAGTGCAG”, 3220 fluorescence intensity (a.u.).

On to “CGCCGAATCATTCGCGGCATATCGCATCGGCATCGGATTGCGGAGTCACCTAGTGCAG”, for which the binding signal was 3390 fluorescence intensity (a.u.).

For “GCGGAAGCGCCATGTGGTTTGTCGTGACGTGGCGTGACGTCGGAGTCACCTAGTGCAG”, the binding signal is 32600 fluorescence intensity (a.u.). Under “TTCTATATACAAATACAACAGCTAAACTGTGCCACTGGCGCGGAGTCACCTAGTGCAG” stands 4070 fluorescence intensity (a.u.). To “TACAGATGGTCGAGATTGACCCACGTCGTCCAAGGATTCGCGGAGTCACCTAGTGCAG” belongs 4340 fluorescence intensity (a.u.); to “CCTCGCATCGCATCCCCACCTCCGCCGATCCCGCCGTCTCCGGAGTCACCTAGTGCAG”, 3400 fluorescence intensity (a.u.); to “GCACCGGATTGGCTCCCTCTCCCGCATCACGCTACTGCCACGGAGTCACCTAGTGCAG”, 3160 fluorescence intensity (a.u.). Take “GTGGAAAACGCGCGTGCACCTCGAGGCAAACGAGCTCACCCGGAGTCACCTAGTGCAG”: the binding signal is 15400 fluorescence intensity (a.u.). Under “TTATTTTGTTATGAGTTGTTTTATCACTCATAGTACTTTACGGAGTCACCTAGTGCAG” stands 3590 fluorescence intensity (a.u.); under “ATGGCTTGAGTCATGCTTAGTTTGGATAGCGGTCTAGTCTCGGAGTCACCTAGTGCAG”, 3310 fluorescence intensity (a.u.); under “CAGTGGCGTGTTGATTCTGACAAGATTTATTGTCCTCCAACGGAGTCACCTAGTGCAG”, 4200 fluorescence intensity (a.u.). In the case of “GCAATTTCATGGATTCTTTGGCCTGCCAGATTTCTTGTCTCGGAGTCACCTAGTGCAG”, the binding signal was 27400 fluorescence intensity (a.u.). With “TGCCGTGGTCCAGAACTTAGCGTGTTGGGGTTCTCTTCCTCGGAGTCACCTAGTGCAG”, the binding signal is 3650 fluorescence intensity (a.u.). To “TTTTACTGCACGCATCTTAGTTACGATAAGTACTATTTTGCGGAGTCACCTAGTGCAG” belongs 25000 fluorescence intensity (a.u.); to “TGGTGCTGCTGATACTGACAATGCTGCTGCGAAACCTGCACGGAGTCACCTAGTGCAG”, 3890 fluorescence intensity (a.u.). Under “GAGTACAAGACTGCATTTCAGTGTTACTGTAGTGCAAACACGGAGTCACCTAGTGCAG” stands 14900 fluorescence intensity (a.u.); under “CGTTTTCTGGCGCTTCCCATACAAACTGACGCGCTGTCTCCGGAGTCACCTAGTGCAG”, 3740 fluorescence intensity (a.u.); under “ACATAGGAAACTTATCTTATCTATCTAAACAGCCCAACAACGGAGTCACCTAGTGCAG”, 3410 fluorescence intensity (a.u.). Under “CCCTTCCACACTCGCCAACACGTAAGCACGTACGACGCGCCGGAGTCACCTAGTGCAG” stands 10800 fluorescence intensity (a.u.); under “TTTGAGCGCCGCTCGACTATGTCATGAAGCAACGTGGCACCGGAGTCACCTAGTGCAG”, 7750 fluorescence intensity (a.u.).

For “AATACGTATGCATTAACTTATAACGTAATCACCCGACTGACGGAGTCACCTAGTGCAG”, the binding signal was 3350 fluorescence intensity (a.u.). As for “ATCGCGTTTGAACTTTGACGTGTTAGTTTTATGTTCCCATCGGAGTCACCTAGTGCAG”, the binding signal is 6380 fluorescence intensity (a.u.).
